This note sets out measurements from the supplement of paper PMC6411743.

Protein sequences, listed by entry. Tags and fused reporters are not part of them. Lines headed by an entry give the natural chain unless they say otherwise; changes in a name come on top.
UniProt Q7Z6K3: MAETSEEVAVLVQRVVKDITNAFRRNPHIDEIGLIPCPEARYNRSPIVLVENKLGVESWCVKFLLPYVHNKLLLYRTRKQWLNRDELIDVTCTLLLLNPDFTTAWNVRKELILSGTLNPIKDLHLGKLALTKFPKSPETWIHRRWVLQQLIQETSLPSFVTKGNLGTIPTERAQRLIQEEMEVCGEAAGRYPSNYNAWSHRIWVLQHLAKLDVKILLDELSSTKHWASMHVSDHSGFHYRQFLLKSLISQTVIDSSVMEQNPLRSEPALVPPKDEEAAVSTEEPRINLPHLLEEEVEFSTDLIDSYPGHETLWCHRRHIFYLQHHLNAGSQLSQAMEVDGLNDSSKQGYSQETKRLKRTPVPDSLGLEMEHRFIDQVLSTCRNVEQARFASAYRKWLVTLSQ
UniProt Q6ZVK8: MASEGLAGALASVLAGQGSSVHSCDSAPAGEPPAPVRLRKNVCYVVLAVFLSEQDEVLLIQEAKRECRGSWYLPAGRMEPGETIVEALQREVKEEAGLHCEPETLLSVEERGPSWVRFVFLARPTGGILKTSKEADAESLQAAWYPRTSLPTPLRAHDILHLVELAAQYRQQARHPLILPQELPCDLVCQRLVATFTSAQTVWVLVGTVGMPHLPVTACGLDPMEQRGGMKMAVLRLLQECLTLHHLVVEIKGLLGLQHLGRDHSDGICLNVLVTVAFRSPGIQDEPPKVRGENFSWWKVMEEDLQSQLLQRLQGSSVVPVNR
UniProt Q6QNY1: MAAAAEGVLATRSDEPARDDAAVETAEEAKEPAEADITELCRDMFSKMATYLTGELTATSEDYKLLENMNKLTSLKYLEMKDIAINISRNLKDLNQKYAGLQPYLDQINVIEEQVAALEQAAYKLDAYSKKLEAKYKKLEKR
UniProt Q86V85: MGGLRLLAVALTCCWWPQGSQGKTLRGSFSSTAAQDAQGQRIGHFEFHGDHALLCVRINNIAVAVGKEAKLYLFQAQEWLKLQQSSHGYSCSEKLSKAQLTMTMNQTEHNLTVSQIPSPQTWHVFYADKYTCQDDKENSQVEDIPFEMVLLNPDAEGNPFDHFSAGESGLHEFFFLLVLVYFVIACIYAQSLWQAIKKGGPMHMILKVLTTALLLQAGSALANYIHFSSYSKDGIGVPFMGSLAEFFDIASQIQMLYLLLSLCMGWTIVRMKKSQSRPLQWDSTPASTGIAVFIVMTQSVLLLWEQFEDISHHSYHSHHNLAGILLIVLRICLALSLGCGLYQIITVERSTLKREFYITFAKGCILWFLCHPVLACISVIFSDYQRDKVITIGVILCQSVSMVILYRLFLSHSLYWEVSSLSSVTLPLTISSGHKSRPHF
UniProt Q7L8J4: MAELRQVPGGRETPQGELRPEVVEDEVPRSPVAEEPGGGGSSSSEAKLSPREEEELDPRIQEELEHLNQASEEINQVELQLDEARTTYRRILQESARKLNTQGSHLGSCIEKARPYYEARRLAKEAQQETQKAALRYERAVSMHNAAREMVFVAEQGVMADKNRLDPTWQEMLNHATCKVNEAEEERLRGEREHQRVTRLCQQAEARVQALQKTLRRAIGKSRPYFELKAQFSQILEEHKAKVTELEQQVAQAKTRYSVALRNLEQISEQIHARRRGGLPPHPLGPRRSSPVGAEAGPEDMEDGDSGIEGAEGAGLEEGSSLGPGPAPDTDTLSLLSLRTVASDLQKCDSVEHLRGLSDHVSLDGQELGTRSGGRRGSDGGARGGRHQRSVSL
UniProt Q86VP1, whole entry: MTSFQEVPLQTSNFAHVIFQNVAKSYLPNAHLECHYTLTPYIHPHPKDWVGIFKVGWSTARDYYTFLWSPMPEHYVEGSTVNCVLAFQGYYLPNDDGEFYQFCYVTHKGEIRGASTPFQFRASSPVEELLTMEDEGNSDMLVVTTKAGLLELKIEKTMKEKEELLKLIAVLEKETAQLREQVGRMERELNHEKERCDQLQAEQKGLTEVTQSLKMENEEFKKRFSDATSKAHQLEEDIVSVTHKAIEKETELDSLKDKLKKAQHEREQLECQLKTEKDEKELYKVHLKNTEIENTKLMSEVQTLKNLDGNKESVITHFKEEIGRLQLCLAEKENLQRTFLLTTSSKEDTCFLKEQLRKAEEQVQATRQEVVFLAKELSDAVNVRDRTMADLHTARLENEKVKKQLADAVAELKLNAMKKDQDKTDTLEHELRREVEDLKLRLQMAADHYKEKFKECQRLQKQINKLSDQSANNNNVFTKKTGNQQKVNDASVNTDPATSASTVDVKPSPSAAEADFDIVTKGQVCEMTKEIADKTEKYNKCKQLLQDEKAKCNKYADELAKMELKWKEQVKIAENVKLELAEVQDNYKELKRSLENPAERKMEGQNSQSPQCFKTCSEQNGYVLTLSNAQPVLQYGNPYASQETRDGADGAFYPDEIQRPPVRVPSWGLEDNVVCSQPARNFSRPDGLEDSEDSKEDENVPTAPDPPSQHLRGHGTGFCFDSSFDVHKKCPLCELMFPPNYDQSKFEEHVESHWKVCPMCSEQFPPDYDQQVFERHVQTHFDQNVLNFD
UniProt Q71RG4: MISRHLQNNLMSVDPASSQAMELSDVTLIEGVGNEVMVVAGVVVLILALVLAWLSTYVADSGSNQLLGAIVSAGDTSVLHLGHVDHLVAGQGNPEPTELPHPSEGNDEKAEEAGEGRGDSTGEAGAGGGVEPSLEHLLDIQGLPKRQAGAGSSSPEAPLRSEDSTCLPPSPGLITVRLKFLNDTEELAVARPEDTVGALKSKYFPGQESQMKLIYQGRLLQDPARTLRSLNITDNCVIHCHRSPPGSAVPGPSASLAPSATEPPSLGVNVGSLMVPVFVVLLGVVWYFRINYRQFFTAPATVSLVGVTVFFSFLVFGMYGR
UniProt Q7LGA3: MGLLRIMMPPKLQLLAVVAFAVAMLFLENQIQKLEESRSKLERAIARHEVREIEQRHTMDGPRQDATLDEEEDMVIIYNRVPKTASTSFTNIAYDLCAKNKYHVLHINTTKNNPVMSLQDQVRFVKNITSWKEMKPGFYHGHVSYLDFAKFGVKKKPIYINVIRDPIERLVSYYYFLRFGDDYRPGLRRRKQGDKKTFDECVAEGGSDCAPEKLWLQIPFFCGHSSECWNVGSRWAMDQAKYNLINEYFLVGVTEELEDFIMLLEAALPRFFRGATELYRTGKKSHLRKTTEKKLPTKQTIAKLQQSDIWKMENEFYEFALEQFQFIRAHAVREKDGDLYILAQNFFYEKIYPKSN
UniProt Q6UWP7: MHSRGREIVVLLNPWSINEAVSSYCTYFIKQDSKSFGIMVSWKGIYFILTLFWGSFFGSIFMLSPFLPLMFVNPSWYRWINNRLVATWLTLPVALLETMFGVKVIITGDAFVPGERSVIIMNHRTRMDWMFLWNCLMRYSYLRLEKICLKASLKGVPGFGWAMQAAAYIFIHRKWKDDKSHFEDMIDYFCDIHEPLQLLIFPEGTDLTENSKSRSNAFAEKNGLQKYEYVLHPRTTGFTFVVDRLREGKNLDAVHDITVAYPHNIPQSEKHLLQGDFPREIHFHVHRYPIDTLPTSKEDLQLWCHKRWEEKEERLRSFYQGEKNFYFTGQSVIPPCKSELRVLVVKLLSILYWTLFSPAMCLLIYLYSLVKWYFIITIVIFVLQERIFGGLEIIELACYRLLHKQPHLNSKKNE
UniProt Q6QNY0: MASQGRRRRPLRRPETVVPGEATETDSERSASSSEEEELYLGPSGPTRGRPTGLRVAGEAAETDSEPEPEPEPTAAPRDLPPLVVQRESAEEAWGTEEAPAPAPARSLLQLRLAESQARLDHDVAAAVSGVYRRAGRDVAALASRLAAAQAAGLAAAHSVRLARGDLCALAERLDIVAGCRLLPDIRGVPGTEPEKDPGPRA
UniProt Q7Z7H5: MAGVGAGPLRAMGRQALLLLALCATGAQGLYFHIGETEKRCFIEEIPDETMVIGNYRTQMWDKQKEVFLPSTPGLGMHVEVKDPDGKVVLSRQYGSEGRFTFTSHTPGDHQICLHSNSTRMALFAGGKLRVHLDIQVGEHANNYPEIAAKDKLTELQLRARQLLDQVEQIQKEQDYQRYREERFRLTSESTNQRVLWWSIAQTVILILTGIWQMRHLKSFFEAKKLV
UniProt Q7RTS9: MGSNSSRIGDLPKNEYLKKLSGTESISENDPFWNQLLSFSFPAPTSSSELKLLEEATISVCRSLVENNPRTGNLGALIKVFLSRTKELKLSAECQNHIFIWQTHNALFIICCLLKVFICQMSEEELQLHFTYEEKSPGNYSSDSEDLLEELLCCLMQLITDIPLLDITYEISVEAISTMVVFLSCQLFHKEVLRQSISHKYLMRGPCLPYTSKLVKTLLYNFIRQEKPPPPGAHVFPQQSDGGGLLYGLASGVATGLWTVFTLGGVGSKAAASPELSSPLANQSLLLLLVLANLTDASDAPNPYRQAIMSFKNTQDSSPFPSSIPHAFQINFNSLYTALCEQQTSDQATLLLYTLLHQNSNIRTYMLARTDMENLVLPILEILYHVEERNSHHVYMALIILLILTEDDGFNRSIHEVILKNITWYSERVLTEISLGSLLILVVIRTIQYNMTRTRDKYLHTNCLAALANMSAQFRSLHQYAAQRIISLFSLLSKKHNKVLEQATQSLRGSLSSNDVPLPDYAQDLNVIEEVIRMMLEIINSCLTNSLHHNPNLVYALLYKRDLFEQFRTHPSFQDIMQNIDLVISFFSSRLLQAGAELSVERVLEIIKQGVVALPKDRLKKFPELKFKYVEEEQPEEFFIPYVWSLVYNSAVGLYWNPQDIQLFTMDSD
UniProt Q86UW6: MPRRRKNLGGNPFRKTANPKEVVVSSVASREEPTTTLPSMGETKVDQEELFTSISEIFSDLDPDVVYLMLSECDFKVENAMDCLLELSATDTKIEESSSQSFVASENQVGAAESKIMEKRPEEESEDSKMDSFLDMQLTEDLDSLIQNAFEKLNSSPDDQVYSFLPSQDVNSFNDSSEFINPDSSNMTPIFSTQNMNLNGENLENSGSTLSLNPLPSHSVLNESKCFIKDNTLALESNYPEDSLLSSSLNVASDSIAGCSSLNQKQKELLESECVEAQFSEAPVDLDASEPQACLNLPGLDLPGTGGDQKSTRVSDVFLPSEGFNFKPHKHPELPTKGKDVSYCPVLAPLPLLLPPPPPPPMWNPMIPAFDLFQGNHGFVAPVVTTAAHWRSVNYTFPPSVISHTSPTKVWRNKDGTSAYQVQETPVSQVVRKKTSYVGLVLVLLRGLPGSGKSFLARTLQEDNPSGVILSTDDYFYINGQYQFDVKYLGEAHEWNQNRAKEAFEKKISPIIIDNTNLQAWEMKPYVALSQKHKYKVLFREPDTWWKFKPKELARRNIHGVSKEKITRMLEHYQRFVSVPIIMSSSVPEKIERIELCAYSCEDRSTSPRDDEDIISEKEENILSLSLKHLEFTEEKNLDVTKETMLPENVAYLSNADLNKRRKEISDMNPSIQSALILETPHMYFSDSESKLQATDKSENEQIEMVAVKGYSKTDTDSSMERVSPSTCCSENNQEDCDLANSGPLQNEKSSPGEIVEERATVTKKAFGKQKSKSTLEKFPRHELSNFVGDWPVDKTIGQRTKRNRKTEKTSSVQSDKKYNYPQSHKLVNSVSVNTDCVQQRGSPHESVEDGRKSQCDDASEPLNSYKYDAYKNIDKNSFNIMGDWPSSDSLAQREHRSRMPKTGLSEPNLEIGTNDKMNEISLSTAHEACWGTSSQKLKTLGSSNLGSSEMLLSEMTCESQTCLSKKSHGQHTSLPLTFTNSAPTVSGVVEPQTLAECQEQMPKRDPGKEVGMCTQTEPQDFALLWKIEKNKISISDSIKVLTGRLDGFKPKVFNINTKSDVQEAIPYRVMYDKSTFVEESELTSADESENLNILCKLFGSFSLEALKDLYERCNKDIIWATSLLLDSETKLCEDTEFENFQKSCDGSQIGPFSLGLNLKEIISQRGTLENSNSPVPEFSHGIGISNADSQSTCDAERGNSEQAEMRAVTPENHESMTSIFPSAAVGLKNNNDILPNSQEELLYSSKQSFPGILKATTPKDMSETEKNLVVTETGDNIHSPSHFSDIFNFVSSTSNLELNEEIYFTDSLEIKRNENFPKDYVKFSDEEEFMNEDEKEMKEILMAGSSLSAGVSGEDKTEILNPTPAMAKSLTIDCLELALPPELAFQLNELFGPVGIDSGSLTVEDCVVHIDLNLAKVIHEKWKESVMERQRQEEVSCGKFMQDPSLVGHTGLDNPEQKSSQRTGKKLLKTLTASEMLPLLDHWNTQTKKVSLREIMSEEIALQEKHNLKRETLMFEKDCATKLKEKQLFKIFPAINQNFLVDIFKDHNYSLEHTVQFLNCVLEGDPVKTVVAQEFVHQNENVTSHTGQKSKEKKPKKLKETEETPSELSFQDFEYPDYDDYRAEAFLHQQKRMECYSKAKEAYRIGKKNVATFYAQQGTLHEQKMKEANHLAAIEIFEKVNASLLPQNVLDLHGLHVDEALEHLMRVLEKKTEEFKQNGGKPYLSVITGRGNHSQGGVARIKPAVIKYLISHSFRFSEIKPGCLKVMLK

± gives the standard deviation of the averaged measurements. The list shows a part of the results, in another mix than the full data.

Compound in this experiment: Nc1ncnc2c1ncn2[C@@H]1O[C@H](COP(=O)(O)OP(=O)(O)OP(=O)(O)O)[C@@H](O)[C@H]1O [adenosine triphosphate]
The experiment is described as follows: NP40-soluble protein abundance relative to vehicle (solubility fold change) (ratio); higher = more soluble protein in presence of ATP. Particulars: concentration: 8mM. An outline of the steps:
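Jurkat crude lysate (Dounce-homogenised) was treated with eight concentrations from 0.1 to 10 mM for 10 min at room temperature, then 3 min at 37 °C. It was solubilised with 0.8% NP40 and benzonase (60 min, 4 °C) and ultracentrifuged, and the supernatant was TMT-labelled for LC-MS/MS. Intensities were vsn-normalised, and the value is the fold change against the NP40-processed vehicle per replicate, from three independent experiments.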
As for CCDC25 (UniProt Q86WR0), the NP40-soluble protein abundance was determined as 0.935 ± 0.014.
The same measure for UniProt Q7Z6K3 and related entries: 0.968 ± 0.016; for NUDT18 (UniProt Q6ZVK8): 0.994 ± 0.072.
On to HDDC2 (UniProt Q7Z4H3), for which the NP40-soluble protein abundance was 0.892 ± 0.028.
Next, BLOC1S2 (UniProt Q6QNY1): 0.9422 ± 0.009.
The same measure for GPR180 (UniProt Q86V85): 0.939 ± 0.018.
In the case of UniProt Q7L8J4 and related entries, the NP40-soluble protein abundance amounted to 0.888 ± 0.037.
The same measure for UniProt Q7Z7H8 and related entries: 1.01 ± 0.11; for UniProt Q7L5D6: 0.906 ± 0.014.
Next, UniProt Q86VP1-2|B8ZZD4: 0.9396 ± 0.007.
Next, UniProt Q71RG4 and related entries: 0.897 ± 0.027; UniProt Q7Z3K3 and related entries: 1.16 ± 0.044; HS2ST1 (UniProt Q7LGA3): 1.26 ± 0.027.
For the target UniProt Q86UA6 and related entries, the NP40-soluble protein abundance was determined as 1.03 ± 0.11.
With UniProt Q7Z7L7, the NP40-soluble protein abundance was found to be 0.965 ± 0.011.
Next, UniProt Q7Z2W9 and related entries: 0.98 ± 0.25.
The same measure for HOMER1 (UniProt Q86YM7): 0.989 ± 0.049; for UniProt Q6UWP7 and related entries: 1.01 ± 0.08; for BLOC1S3 (UniProt Q6QNY0): 0.927 ± 0.033.
As to ATAD2 (UniProt Q6PL18), the NP40-soluble protein abundance amounted to 1.16 ± 0.11.
The same measure for TMED4 (UniProt Q7Z7H5): 0.949 ± 0.043; for UniProt Q6PIF6: 1.11 ± 0.03; for UniProt Q7Z460-4: 1.08 ± 0.058.
For “UniProt Q6PJT7-3|Q6PJT7-5|Q6PJT7-9|Q6PJT7”, the NP40-soluble protein abundance is 1.416 ± 0.005.
The same measure for DYM (UniProt Q7RTS9): 0.97 ± 0.074.
Take TRAPPC6B (UniProt Q86SZ2): the NP40-soluble protein abundance was found to be 0.974 ± 0.071.
The same measure for UniProt Q86UW6 and related entries: 1.11 ± 0.043.
